Measured values reported in publication PMC6625990, “Structural underpinnings of Ric8A function as a G-protein α-subunit chaperone and guanine-nucleotide exchange factor” (Nature Communications, 2019).
Results are given in words; binding and its absence hold for the method and conditions named.

Chains of the proteins cited; added tags and fusions are not shown. Lines headed by an entry give the natural chain unless they say otherwise; changes in a name come on top.
UniProt P04695: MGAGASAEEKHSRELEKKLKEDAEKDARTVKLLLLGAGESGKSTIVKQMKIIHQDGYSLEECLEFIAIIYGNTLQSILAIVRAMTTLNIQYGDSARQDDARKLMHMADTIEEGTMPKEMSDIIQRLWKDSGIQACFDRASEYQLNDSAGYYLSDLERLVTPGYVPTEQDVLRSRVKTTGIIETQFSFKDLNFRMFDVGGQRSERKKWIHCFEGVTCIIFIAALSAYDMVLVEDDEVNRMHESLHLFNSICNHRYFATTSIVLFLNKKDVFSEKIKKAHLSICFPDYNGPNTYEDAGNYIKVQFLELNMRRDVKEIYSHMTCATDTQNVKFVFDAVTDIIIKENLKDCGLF

Biological target: Gαt333–350 (UniProt P04695)
Test: BLI; N-terminally biotinylated Gα peptides on streptavidin biosensors, Ric8A proteins in solution; Octet RED96, 26 °C, 20 mM Tris, 150 mM KCl, 5% glycerol, 1 mM TCEP, 0.5 mg/ml BSA, pH 8.0; kinetic fit (1:1 model) and steady-state fit (one site); both purified

Row | binding | Binder
1 | no binding | Ric8A1–492 R75M (domain or fragment, UniProt Q5E9J8 1-492) MEPRAVADALETGEEDVVMEALRAYNRENSQSFTFDDAQQEDRKRLAKLLVSVLEQGLPPSRRVIWLQSIRILSMDRSCLDSFTSRRSLQALACYAGISASQGSVPEPLNMDVVLESLKCLCNLVLSSPVAQALAAEAGLVVRLAERVGLCRQSSFPHDVQFFDLRLLFLLTALRTDVRQQLFQELQGVRLLTRALELTLGMTEGERHPELLPPQETERAMEILKVLFNITFDSIKREVDEEDAALYRHLGTLLRHCVMLAAAGDRTEELHGHAVNLLGNLPVKCLDVLLTLEPHEGSLEFLGVNMDVIRVLLSFMEKRLHQTHRLKESVAPVLSVLTECARMHRPARKFLKAQVLPPLRDVRTRPEVGELLRNKLVRLMTHLDTDVKRVAAEFLFVLCSESVPRFIKYTGYGNAAGLLAARGLMAGGRPEGQYSEDEDTDTDEYKEAKASINPVTGRVEEKPPNPMEGMTEEQKEHEAMKLVNMFDKLSRH
2 | no binding | Ric8A1–492 N123E (domain or fragment, UniProt Q5E9J8 1-492) MEPRAVADALETGEEDVVMEALRAYNRENSQSFTFDDAQQEDRKRLAKLLVSVLEQGLPPSRRVIWLQSIRILSRDRSCLDSFTSRRSLQALACYAGISASQGSVPEPLNMDVVLESLKCLCELVLSSPVAQALAAEAGLVVRLAERVGLCRQSSFPHDVQFFDLRLLFLLTALRTDVRQQLFQELQGVRLLTRALELTLGMTEGERHPELLPPQETERAMEILKVLFNITFDSIKREVDEEDAALYRHLGTLLRHCVMLAAAGDRTEELHGHAVNLLGNLPVKCLDVLLTLEPHEGSLEFLGVNMDVIRVLLSFMEKRLHQTHRLKESVAPVLSVLTECARMHRPARKFLKAQVLPPLRDVRTRPEVGELLRNKLVRLMTHLDTDVKRVAAEFLFVLCSESVPRFIKYTGYGNAAGLLAARGLMAGGRPEGQYSEDEDTDTDEYKEAKASINPVTGRVEEKPPNPMEGMTEEQKEHEAMKLVNMFDKLSRH
3 | no binding | Ric8A1–426 (domain or fragment, UniProt Q5E9J8 1-426) MEPRAVADALETGEEDVVMEALRAYNRENSQSFTFDDAQQEDRKRLAKLLVSVLEQGLPPSRRVIWLQSIRILSRDRSCLDSFTSRRSLQALACYAGISASQGSVPEPLNMDVVLESLKCLCNLVLSSPVAQALAAEAGLVVRLAERVGLCRQSSFPHDVQFFDLRLLFLLTALRTDVRQQLFQELQGVRLLTRALELTLGMTEGERHPELLPPQETERAMEILKVLFNITFDSIKREVDEEDAALYRHLGTLLRHCVMLAAAGDRTEELHGHAVNLLGNLPVKCLDVLLTLEPHEGSLEFLGVNMDVIRVLLSFMEKRLHQTHRLKESVAPVLSVLTECARMHRPARKFLKAQVLPPLRDVRTRPEVGELLRNKLVRLMTHLDTDVKRVAAEFLFVLCSESVPRFIKYTGYGNAAGLLAARGLMA
